Experimental data: patent US9540336B2, “Therapeutic agents” (priority 2011, dated 2017)

Tested on: M. smegmatis membranes
Test: Binding of CFZ to isolated M. smegmatis membranes

With `CC(C)N=c1cc2n(-c3ccc(Cl)cc3)c3ccccc3nc-2cc1Nc1ccc(Cl)cc1` [CFZ, 3-(4-chloroanilino)-10-(4-chlorophenyl)-2,10-dihydro-2-(isopropylimino)-phenazine] the “CFZ remaining in solution associated with membrane after centrifugation” value (60 μg membranes/0.5 mL, 0.1 M HEPES pH 7.0) was “about 50 μM”, the “CFZ associated with membrane per lipid” value (assuming equal lipid/protein weight, 600 Da lipid) was 0.5-1.0 mole of CFZ per mole of lipid and the “proportion of membrane-associated CFZ that is cationic” value (end of experiment, pH 7.0) was “approximately 80%”.
